Values of other authors, collected in patent US8600479B2, “Guidance and implantation of catheters” (Peak Biosciences, Inc., priority 2007, dated 2013).
For at least one compound, name, drawing or mass did not settle the structure.

Tested on: newly diagnosed GBM
Details: beyond surgery and radiation alone; oral temozolomide during and after the course of radiation

Cn1nnc2c(C(N)=O)ncn2c1=O [temozolomide]
median prolongation of survival: 2-3 months
